# Results from the supplement of paper PMC11348887.
# Where a name gives a salt, the structure may show the parent alone. The list shows a part of the results. Small differences around the control level are noise.
# Test system: hPSC-derived cortical neurons (WA09)
# Assay: nucleus area z-score vs screen plate; higher = larger nuclei (more mature)
# Details: 5 µM; treatment: days 7-14 after plating, readout day 21
row,Compound,nucleus area z-score
1,Nc1ccn([C@@H]2O[C@H](CO)[C@@H](O)[C@@H]2O)c(=O)n1 [Cytarabine],1.56
2,CC(C)(C#N)c1cc(Cn2cncn2)cc(C(C)(C)C#N)c1 [Anastrozole],2.36
3,Cc1nc2ccc(NC(=O)Nc3ccnc4cccnc34)cc2o1,-0.46
4,CN(C)CCc1c[nH]c2ccc(C[C@H]3COC(=O)N3)cc12 [Zolmitriptan],-0.428
5,CN(C)CCC=C1c2ccccc2C=Cc2ccccc21 [Cyclobenzaprine HCl],-0.731
6,O=C(/C=C/c1ccc(CN(CCO)CCc2c[nH]c3ccccc23)cc1)NO [LAQ824 (Dacinostat)],-8.22

# Test system: hPSC-derived cortical neurons (WA09)
# Assay: total neurite length per nucleus (MAP2) z-score; higher = more neurite growth
# Details: 5 µM; treatment: days 7-14 after plating, readout day 21
row,Compound,total neurite length per nucleus (z-score)
1,CC(C(=O)O)c1ccc(-c2ccccc2)c(F)c1 (stereo unspecified) [Flurbiprofen],0.692
2,CCCc1cc2c(N3CCN(C4=NCC(C)(C)S4)CC3)ncnc2s1 [MI-2 (Menin-MLL Inhibitor)],-3.46
3,Cc1ccc(NC(=O)c2ccc(CN3CCN(C)CC3)cc2)cc1Nc1nc(-c2cccnc2)cs1 [Masitinib (AB1010)],0.238
4,O=C(/C=C\n1cnc(-c2cc(C(F)(F)F)cc(C(F)(F)F)c2)n1)N1CC(F)(F)C1,-1.81
5,O=C1c2c(O)ccc(O)c2C(=O)c2c(NCCNCCO)ccc(NCCNCCO)c21 [Mitoxantrone HCl],-5.36
6,C#C[C@]1(O)CC[C@H]2[C@@H]3CCC4=CC(=O)CC[C@@H]4[C@H]3CC[C@@]21CC [Levonorgestrel],-1.53
7,CN1[C@@H]2CC[C@H]1C[C@@H](OC(c1ccccc1)c1ccccc1)C2 [Benztropine mesylate],-1.52
8,CCCc1nc(C(C)(C)O)c(C(=O)OCc2oc(=O)oc2C)n1Cc1ccc(-c2ccccc2-c2nnn[nH]2)cc1 [Olmesartan Medoxomil],-0.784
9,O=C(NCCCNc1nc(Nc2cccc(NC(=O)N3CCCC3)c2)ncc1I)c1cccs1,0.129
10,CCCN[C@H]1CCc2nc(N)sc2C1 [Pramipexole],-0.444
11,NC[C@H]1O[C@H](O[C@H]2[C@H](O[C@@H]3O[C@H](CO)[C@@H](O)[C@H]3O)[C@@H](O)[C@H](N)C[C@@H]2N)[C@H](N)[C@@H](O)[C@@H]1O [Ribostamycin Sulfate],0.257
12,N[C@@H](CC(=O)N1CCn2c(nnc2C(F)(F)F)C1)Cc1cc(F)c(F)cc1F [Sitagliptin phosphate monohydrate],1.04
13,CCOc1nc2cccc(C(=O)O)c2n1Cc1ccc(-c2ccccc2-c2nnn[nH]2)cc1 [Candesartan],0.171
14,C=C[C@@]1(C)CC(=O)[C@]2(O)[C@@]3(C)[C@@H](O)CCC(C)(C)[C@@H]3[C@H](O)[C@H](OC(C)=O)[C@@]2(C)O1 [Forskolin],2.27
15,Cc1cc(Cn2cnc3c2CC(C(=O)O)N(C(=O)C(c2ccccc2)c2ccccc2)C3)ccc1N(C)C (stereo unspecified),-0.538
16,NC12CC3CC(CC(C3)C1)C2 [Amantadine HCl],-0.626
17,C[C@H]1COc2c(N3CCN(C)CC3)c(F)cc3c(=O)c(C(=O)O)cn1c23 [Levofloxacin hydrate],0.837
18,Oc1ccc([C@H]2COc3cc(O)ccc3C2)cc1 [Equol],0.31
19,O=C(O)C1=CO[C@@H](O[C@@H]2O[C@H](CO)[C@@H](O)[C@H](O)[C@H]2O)[C@@H]2C(CO)=CC[C@H]12 [Geniposidic acid],0.0608
20,CCOC(=O)[N-]c1c[n+](N2CCOCC2)no1 [Molsidomine],-0.476

# Reprinted at random: 2 records from the list
row,Compound,total neurite length per nucleus (z-score)
8,CCCc1nc(C(C)(C)O)c(C(=O)OCc2oc(=O)oc2C)n1Cc1ccc(-c2ccccc2-c2nnn[nH]2)cc1 [Olmesartan Medoxomil],-0.784
2,CCCc1cc2c(N3CCN(C4=NCC(C)(C)S4)CC3)ncnc2s1 [MI-2 (Menin-MLL Inhibitor)],-3.46

# More compounds:

row,Compound,total neurite length per nucleus (z-score)
1,Cc1ccc(C)c(OCCCC(C)(C)C(=O)O)c1 [Gemfibrozil],-0.312
2,Cc1ccc(S(=O)(=O)n2c(N)nc3ccccc32)cc1 [ML130 (Nodinitib-1)],0.411
3,CC1(C)CC[C@]2(C(=O)O)CC[C@]3(C)C(=CC[C@@H]4[C@@]5(C)CC[C@H](O)C(C)(C)[C@@H]5CC[C@]43C)[C@@H]2C1 [Oleanolic Acid],-0.519
4,CCCC(C(=O)OCCN(CC)CC)(c1ccccc1)c1ccccc1 [Proadifen HCl],-1.7
5,O=C(N/N=C/c1ccc(O)c(O)c1)c1cc2ccccc2cc1O [Dynasore],-0.27
6,CC(C)NCC(O)COc1ccc(CCOCC2CC2)cc1 (stereo unspecified) [Betaxolol],-0.565
7,C=CC(=O)Nc1cccc(Nc2nc(Nc3ccc(Oc4ccnc(C(=O)NC)c4)cc3)ncc2F)c1,0.293
8,CCN1/C(=C/C(C)=O)Sc2ccc(OC)cc21,0.434
9,COCCOC(=O)C1=C(C)NC(C)=C(C(=O)OC/C=C/c2ccccc2)C1c1cccc([N+](=O)[O-])c1 (stereo unspecified) [Cilnidipine],-0.091
10,Oc1ccc(/C=C/c2cc(O)cc(O)c2)cc1 [Resveratrol],0.376
11,CC(C(=O)O)c1cccc(C(=O)c2ccccc2)c1 (stereo unspecified) [Ketoprofen],0.949
12,O=C1[C@H](CC[C@H](O)c2ccc(F)cc2)[C@@H](c2ccc(O)cc2)N1c1ccc(F)cc1 [Ezetimibe],0.576
13,O=c1[nH]nc(Sc2ncc([N+](=O)[O-])s2)n1-c1ccc2c(c1)OCCO2,-6.89
14,NCC(=O)Nc1ccc(-n2nc(C(F)(F)F)cc2-c2ccc3c(ccc4ccccc43)c2)cc1,-0.907
15,Nc1ccn([C@@H]2O[C@H](CO)[C@@H](O)[C@@H]2O)c(=O)n1 [Cytarabine],2.81
16,CC(C)(C#N)c1cc(Cn2cncn2)cc(C(C)(C)C#N)c1 [Anastrozole],0.552
17,Cc1nc2ccc(NC(=O)Nc3ccnc4cccnc34)cc2o1,-0.42
18,CN(C)CCc1c[nH]c2ccc(C[C@H]3COC(=O)N3)cc12 [Zolmitriptan],-0.219
19,CN(C)CCC=C1c2ccccc2C=Cc2ccccc21 [Cyclobenzaprine HCl],-0.85
20,O=C(/C=C/c1ccc(CN(CCO)CCc2c[nH]c3ccccc23)cc1)NO [LAQ824 (Dacinostat)],-2.99
